The values that follow come from publication PMC11101406.

Protein sequences, listed by entry. Tags and fused reporters are not part of them.
UniProt Q14203: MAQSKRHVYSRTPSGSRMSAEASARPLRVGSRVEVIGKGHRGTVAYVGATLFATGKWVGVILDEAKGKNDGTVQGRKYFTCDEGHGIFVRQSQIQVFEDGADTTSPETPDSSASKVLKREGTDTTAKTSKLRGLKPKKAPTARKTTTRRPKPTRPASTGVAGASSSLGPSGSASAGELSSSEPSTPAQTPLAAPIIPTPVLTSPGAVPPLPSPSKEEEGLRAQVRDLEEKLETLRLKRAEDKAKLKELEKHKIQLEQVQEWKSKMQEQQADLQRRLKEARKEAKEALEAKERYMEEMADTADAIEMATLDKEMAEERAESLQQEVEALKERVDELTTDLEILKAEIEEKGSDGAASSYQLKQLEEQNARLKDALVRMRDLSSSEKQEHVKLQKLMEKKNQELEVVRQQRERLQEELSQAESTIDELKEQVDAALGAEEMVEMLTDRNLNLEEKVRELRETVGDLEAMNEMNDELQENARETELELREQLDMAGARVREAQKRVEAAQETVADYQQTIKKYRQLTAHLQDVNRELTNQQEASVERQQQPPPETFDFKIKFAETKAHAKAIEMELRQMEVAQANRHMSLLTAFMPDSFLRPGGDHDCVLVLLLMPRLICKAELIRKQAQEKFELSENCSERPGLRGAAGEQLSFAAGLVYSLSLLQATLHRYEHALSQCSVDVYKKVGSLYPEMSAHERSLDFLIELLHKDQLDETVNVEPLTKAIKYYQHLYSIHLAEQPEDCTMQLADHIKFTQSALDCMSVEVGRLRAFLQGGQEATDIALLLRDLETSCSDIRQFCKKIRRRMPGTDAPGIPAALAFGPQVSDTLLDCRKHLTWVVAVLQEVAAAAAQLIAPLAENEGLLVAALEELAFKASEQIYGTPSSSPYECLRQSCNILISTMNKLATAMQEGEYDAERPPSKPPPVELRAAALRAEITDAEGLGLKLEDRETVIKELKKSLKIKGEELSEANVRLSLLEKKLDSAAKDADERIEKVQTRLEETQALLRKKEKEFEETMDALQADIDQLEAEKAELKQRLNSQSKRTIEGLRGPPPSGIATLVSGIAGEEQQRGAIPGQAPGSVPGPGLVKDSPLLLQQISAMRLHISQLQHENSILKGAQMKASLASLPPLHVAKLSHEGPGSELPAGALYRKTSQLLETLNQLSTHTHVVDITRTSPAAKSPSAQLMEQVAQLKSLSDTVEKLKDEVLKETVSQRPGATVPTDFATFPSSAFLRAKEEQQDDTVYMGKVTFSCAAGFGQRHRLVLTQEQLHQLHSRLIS
UniProt P28023: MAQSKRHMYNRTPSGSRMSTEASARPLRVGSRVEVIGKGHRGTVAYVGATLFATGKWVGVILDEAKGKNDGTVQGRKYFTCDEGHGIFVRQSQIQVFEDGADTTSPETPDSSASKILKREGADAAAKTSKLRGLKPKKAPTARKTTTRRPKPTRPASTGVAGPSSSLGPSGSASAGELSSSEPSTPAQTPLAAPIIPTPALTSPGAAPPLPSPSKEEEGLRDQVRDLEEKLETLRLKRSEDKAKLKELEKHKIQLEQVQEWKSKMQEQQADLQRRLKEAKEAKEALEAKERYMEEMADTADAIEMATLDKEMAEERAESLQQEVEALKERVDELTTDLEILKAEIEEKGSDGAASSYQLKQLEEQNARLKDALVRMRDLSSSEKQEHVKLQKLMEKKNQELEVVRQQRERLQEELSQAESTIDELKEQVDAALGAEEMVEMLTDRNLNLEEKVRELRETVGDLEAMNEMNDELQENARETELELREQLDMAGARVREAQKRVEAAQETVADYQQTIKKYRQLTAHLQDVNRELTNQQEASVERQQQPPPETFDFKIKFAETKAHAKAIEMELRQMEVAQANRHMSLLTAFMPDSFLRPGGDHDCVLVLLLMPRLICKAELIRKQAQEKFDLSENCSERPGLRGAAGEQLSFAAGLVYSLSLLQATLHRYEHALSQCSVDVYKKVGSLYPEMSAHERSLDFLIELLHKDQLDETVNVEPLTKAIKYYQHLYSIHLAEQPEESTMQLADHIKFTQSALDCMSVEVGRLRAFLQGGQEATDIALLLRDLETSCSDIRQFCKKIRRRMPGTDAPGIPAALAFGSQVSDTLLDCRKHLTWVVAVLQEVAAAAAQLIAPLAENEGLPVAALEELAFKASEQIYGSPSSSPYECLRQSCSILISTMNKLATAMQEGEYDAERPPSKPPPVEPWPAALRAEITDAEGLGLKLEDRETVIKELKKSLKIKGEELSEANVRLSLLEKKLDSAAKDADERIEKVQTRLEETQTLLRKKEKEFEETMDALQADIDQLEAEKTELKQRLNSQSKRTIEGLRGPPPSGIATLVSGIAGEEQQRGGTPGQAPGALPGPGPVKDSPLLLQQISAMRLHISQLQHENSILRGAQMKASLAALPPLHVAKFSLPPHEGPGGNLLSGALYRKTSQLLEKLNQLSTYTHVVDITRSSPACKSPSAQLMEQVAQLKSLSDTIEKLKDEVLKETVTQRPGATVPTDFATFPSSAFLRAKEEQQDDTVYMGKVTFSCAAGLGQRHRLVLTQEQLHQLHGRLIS
UniProt Q9UJW0: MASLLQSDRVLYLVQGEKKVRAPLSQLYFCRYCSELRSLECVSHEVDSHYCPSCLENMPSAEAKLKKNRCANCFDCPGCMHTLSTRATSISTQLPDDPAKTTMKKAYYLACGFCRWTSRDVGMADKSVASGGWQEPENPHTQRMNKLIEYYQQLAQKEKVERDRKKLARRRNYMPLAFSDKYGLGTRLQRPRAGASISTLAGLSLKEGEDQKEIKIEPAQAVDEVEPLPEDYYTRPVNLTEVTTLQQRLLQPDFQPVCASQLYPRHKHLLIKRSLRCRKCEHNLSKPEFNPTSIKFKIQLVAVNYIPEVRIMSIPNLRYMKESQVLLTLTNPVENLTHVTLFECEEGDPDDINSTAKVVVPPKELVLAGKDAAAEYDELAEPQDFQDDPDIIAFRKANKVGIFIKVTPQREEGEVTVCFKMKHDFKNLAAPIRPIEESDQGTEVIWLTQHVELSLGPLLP

The target of experiment [1] is p150^Glued (endogenous, HEK293T) (human (endogenous in HEK293T)) (UniProt Q14203). Nature of the experiment: co-IP; endogenous p150^Glued with endogenous subunits of the dynactin-dynein complex from HEK293T lysates; cells treated with an mTOR inhibitor or transfected with pEGFPC1 or pEGFPC1-p50.
In experiment [2] the target is AviGFP-tagged p150^Glued (full length) (UniProt P28023). Put plainly: pull-down; Avi-tag pull down of in vivo biotinylated Avi-tagged baits from HEK293T cells, harsh washing; Western blot for endogenous p62 and Arp1.

No constants are given. Whether binding was seen depends on the method and setting. Binding seen in cells or lysates may run through a third protein. Some binding calls cover weakened binding; strength is not graded here.

In the case of “p62 (dynactin Arp1-rod protein, endogenous, HEK293T) (from UniProt Q9UJW0 1-460)”, the binding result in experiment [1] and in experiment [2] was “binds” throughout.
